In patent US20250177367A1, “COMBINATION THERAPIES FOR MODULATION OF LIPID PRODUCTION” (Ohio State Innovation Foundation, priority 2022, published 2025):
At least one structure is not confirmed: it was looked up by name or label, or the drawing left a doubt.

Columns and labels:
[1] = test system: GBM30, U251 and U373 colonies; assay: Colony formation assay in GBM cells; format: cell-based, human; details: pimozide 3 μM; for colony number: Fatostatin 5 μM, 8 days, pre-formed colonies
ASCT2 = ASCT2 expression (western blot of membrane extracts, immunofluorescence); format: cell-based, human
From the text: Transferring receptor-1(CD71), an integral membrane protein that mediates the uptake of transferrin-iron complexes, was used as a membrane loading control for ASCT2. […] Nuclei were stained with DAPI (blue).

GBM30 and U373 cells = assay: Real-time PCR of fatty acid and cholesterol synthesis genes; format: cell-based, human; details: GBM30 and U373, 24 hr
[2] = test system: patient-derived primary GBM30 cells; assay: Cell viability after antipsychotic drug treatment, GBM30; format: cell-based, human; details: 5 μM, 6 days
GBM cells (U251) = assay: Subcellular distribution of Pacific blue-labeled pimozide by confocal microscopy; format: cell-based; details: lysosomes co-stained with LysoTracker
[3] = test system: lysosomal pH in GBM30 and U251 cells; assay: Lysosomal pH with LysoSensor Yellow/Blue dextran; format: cell-based, human; details: pimozide 3 μM, 24 hr
GBM30 and U251 cells = assay: Lipid droplet and lysosome fluorescence imaging (BODIPY 493/503 / Lysotracker); format: cell-based, human; details: pimozide 3 μM, 24 hr
GBM intracranial models = details: in vivo; cited from earlier work
GBM30 cells = assay: LD and LDL hydrolysis fluorescence imaging; format: cell-based, human; details: 24 hr
SREBP-1/2 cleavage = assay: Western blot of SREBP cleavage and FASN/SCD1 expression in GBM cells; format: cell-based, human; details: GBM30 and U251, different doses of pimozide, 24 hr
Procedure: P, precursor of SREBP; N, N-terminus of SREBP-1. C, C-terminus of SREBP-2.
4 mM glutamine and […] pyruvate.
Western Blot. Cells were lysed with RIPA buffer containing a protease inhibitor cocktail and phosphatase inhibitors. The proteins were separated on 12% SDS-PAGE, and transferred onto an ECL nitrocellulose membrane (#1620112, Bio-Rad). After blocking for 1.5 hr in 5% non-fat dried milk diluted by Tris-buffered saline containing 0.1% Tween 20, the membranes were incubated with various primary antibodies, followed by appropriate secondary antibodies conjugated to horseradish peroxidase.

[4] = test system: GBM30, U373 and U251 cells; assay: Proliferation curves of GBM cells; format: cell-based, human; details: pimozide 3 μM, 4 days, 1% FBS
glutamine metabolism = assay: Stable isotope 13C-glutamine tracing; format: cell-based; details: in vitro
[5] = test system: lysosomal activity in GBM30 and U251 cells; assay: Lysosomal activity by DQ-green BSA; format: cell-based, human; details: pimozide 3 μM, 24 hr, vs DMSO
U251 cells = assay: Cell viability after antipsychotic drug treatment, U251; format: cell-based; details: 5 μM, 3 days

| Compound | colony number [1] | ASCT2 expression, confocal immuno-fluorescence (ASCT2; GBM30 and U251) | ASCT2 expression, western blot of membrane extracts (ASCT2; GBM30 and U251, 24 hr) | expression of genes in fatty acid and cholesterol synthesis pathways (GBM30 and U373 cells) | cell killing [2] | pre-formed colonies in the absence of glutamine [1] | entry into cells and lysosomes (GBM cells (U251)) | lysosomal pH [3] | lysosome sizes (GBM30 and U251 cells) | LD numbers stained with BODIPY (GBM30 and U251 cells; 1% FBS) | antitumor effect combined with radiation therapy (GBM intracranial models) | antitumor effect, pimozide treatment alone (GBM intracranial models) | LD and LDL hydrolysis (GBM30 cells) | lysosome morphology (GBM30 cells) | LD and LDL hydrolysis (GBM30 cells; listed as Pimozide) | SREBP-1/2 cleavage and FASN and SCD1 expression (SREBP-1/2 cleavage) | proliferation in the absence of glutamine [4] | glutamine uptake, glutaminolysis and reductive carboxylation-mediated citrate synthesis (glutamine metabolism) | lysosomal activity (DQ-green BSA fluorescence) [5] | cell killing (U251 cells) |
| --- | --- | --- | --- | --- | --- | --- | --- | --- | --- | --- | --- | --- | --- | --- | --- | --- | --- | --- | --- | --- |
| CCCc1cc(-c2nc(-c3ccc(C)cc3)cs2)ccn1 [fatostatin] | only slightly reduced colony number | – | – | – | – | – | – | – | – | – | – | – | – | – | – | – | – | – | – | – |
| O=c1[nH]c2ccccc2n1C1CCN(CCCC(c2ccc(F)cc2)c2ccc(F)cc2)CC1 [pimozide] | only slightly reduced colony number | dose-dependently increased ASCT2 expression | dose-dependently increased ASCT2 expression | significantly increased the expression of genes in controlling fatty acid/cholesterol synthesis | almost completely killed | almost eradicated pre-formed colonies | directly enter the lysosomes | dramatically increased lysosomal pH from acidic to neutral level | dramatically increased | blocked LDs diminish | only a modest antitumor effect | no significant effect | effectively suppressed the hydrolysis of both LDs and LDL | enlarged and swollen and aggregated together | dramatically suppressed LD and LDL hydrolysis | dose-dependently activated SREBP-1/2 cleavage | kills GBM cells in the absence of glutamine | greatly elevated | lysosomal activity was significantly inhibited | almost completely killed |
